PubChem BioAssay AID686943 – Drosophila RNAi Screening Center, 2013
Test: 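Fly genes whose loss alters ERK activation after insulin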 (primary screen). System: Drosophila S2R+ haemocyte-like cells expressing YFP-tagged ERK (Rolled). Reagent: long dsRNA against Drosophila genes. Challenge: insulin stimulation versus unstimulated cells; dose and duration not given. Measured: 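Antibody staining for doubly phosphorylated ERK divided by ERK-YFP signal, as plate z-scores, in insulin-treated and untreated cells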. Direction: replicate 1, z-score of dpERK with insulin and replicate 2, z-score of dpERK with insulin: higher = more active ERK per ERK-YFP after insulin.
The screen tested about 23,000 reagents; shown is an unselected part of those that have a named target and a result. 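Extra replicates exist only for a retested subset of genes; insulin dose and duration not given; both raised and lowered dpERK matter.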 Reagents against one gene are numbered here. Not all columns of the deposit are shown. Not given: the amount of reagent, the time to read-out.

For CG13386, how do the results read?
replicate 1, z-score of dpERK with insulin: 0.2; replicate 2, z-score of dpERK with insulin: 0.87

What did the screen give for Arl8?
replicate 1, z-score of dpERK with insulin: 0.02; replicate 2, z-score of dpERK with insulin: -1.44

How did the screen score dia?
replicate 1, z-score of dpERK with insulin: -0.51; replicate 2, z-score of dpERK with insulin: 0.46

How did the screen score AGBE?
replicate 1, z-score of dpERK with insulin: 1.2; replicate 2, z-score of dpERK with insulin: 0.21

For CG7565, what does the deposit list?
replicate 1, z-score of dpERK with insulin: 0.06; replicate 2, z-score of dpERK with insulin: -0.06

For CG1309, what does the deposit list?
replicate 1, z-score of dpERK with insulin: -0.14; replicate 2, z-score of dpERK with insulin: -0.31

How did the screen score CG18343?
replicate 1, z-score of dpERK with insulin: 0.04; replicate 2, z-score of dpERK with insulin: 1.13

How did the screen score Mlp84B?
replicate 1, z-score of dpERK with insulin: -0.05; replicate 2, z-score of dpERK with insulin: 0.01

For GluRIIE, what does the deposit list?
replicate 1, z-score of dpERK with insulin: 0.6; replicate 2, z-score of dpERK with insulin: -0.42

For CG12985, what does the deposit list?
replicate 1, z-score of dpERK with insulin: 1.2; replicate 2, z-score of dpERK with insulin: 0.11

How did the screen score Prp4k?
replicate 1, z-score of dpERK with insulin: 1.92; replicate 2, z-score of dpERK with insulin: 0.05

For jdp, what does the deposit list?
replicate 1, z-score of dpERK with insulin: -0.11; replicate 2, z-score of dpERK with insulin: 0.25

What is on record for CG16894 #1?
replicate 1, z-score of dpERK with insulin: 1; replicate 2, z-score of dpERK with insulin: 0.12

What is on record for CG16894 #2?
replicate 1, z-score of dpERK with insulin: -0.01; replicate 2, z-score of dpERK with insulin: 0.21

Which result is listed for CG11373?
replicate 1, z-score of dpERK with insulin: 1.05; replicate 2, z-score of dpERK with insulin: 0.89

How did the screen score TrxT?
replicate 1, z-score of dpERK with insulin: 0.73; replicate 2, z-score of dpERK with insulin: 0.99

What is on record for CG11357?
replicate 1, z-score of dpERK with insulin: 1.31; replicate 2, z-score of dpERK with insulin: -0.44

How did the screen score CG9135?
replicate 1, z-score of dpERK with insulin: 0.47; replicate 2, z-score of dpERK with insulin: -0.58

For qvr, what does the deposit list?
replicate 1, z-score of dpERK with insulin: 0.74; replicate 2, z-score of dpERK with insulin: 0.6

For CCHa1, what does the deposit list?
replicate 1, z-score of dpERK with insulin: -0.53; replicate 2, z-score of dpERK with insulin: -3.37

How did the screen score CG42591?
replicate 1, z-score of dpERK with insulin: 0.3; replicate 2, z-score of dpERK with insulin: 0.15

What did the screen give for fs(1)N?
replicate 1, z-score of dpERK with insulin: -0.25; replicate 2, z-score of dpERK with insulin: 1.1

For CG3502, how do the results read?
replicate 1, z-score of dpERK with insulin: -0.75; replicate 2, z-score of dpERK with insulin: 0.55

For CG16854, how do the results read?
replicate 1, z-score of dpERK with insulin: 0.11; replicate 2, z-score of dpERK with insulin: 0.22

What is on record for foi?
replicate 1, z-score of dpERK with insulin: -1.91; replicate 2, z-score of dpERK with insulin: -3.82

With Ugt35A1, how do the results read?
replicate 1, z-score of dpERK with insulin: 0.98; replicate 2, z-score of dpERK with insulin: -0.17

For CG13924, what was measured?
replicate 1, z-score of dpERK with insulin: 2.34; replicate 2, z-score of dpERK with insulin: -0.93

Which result is listed for Rpn10?
replicate 1, z-score of dpERK with insulin: -0.99; replicate 2, z-score of dpERK with insulin: -3.11

What did the screen give for Dll?
replicate 1, z-score of dpERK with insulin: 0.15; replicate 2, z-score of dpERK with insulin: -0.07

For CG8128, how do the results read?
replicate 1, z-score of dpERK with insulin: -0.15; replicate 2, z-score of dpERK with insulin: -0.05

What did the screen give for CG34386 #1?
replicate 1, z-score of dpERK with insulin: -4.22; replicate 2, z-score of dpERK with insulin: -3.54

For CG34386 #2, what does the deposit list?
replicate 1, z-score of dpERK with insulin: -0.12; replicate 2, z-score of dpERK with insulin: 0.18

Reprinted from the listing, 4 entries:
CG7565 → replicate 1, z-score of dpERK with insulin: 0.06; replicate 2, z-score of dpERK with insulin: -0.06
CG1309 → replicate 1, z-score of dpERK with insulin: -0.14; replicate 2, z-score of dpERK with insulin: -0.31
CG18343 → replicate 1, z-score of dpERK with insulin: 0.04; replicate 2, z-score of dpERK with insulin: 1.13
Mlp84B → replicate 1, z-score of dpERK with insulin: -0.05; replicate 2, z-score of dpERK with insulin: 0.01
